# Experimental data as given in the supplement of paper PMC8728848.
# The list shows a part of the results.
# B1: PX9961KLbvu-535-38-535 (Bacteroides vulgatus) (protein)
# chain: DKAYTDAESYTKGLHKIYSVWALSGQDGSSSSDISGLDAGNTALLRCWWTLQEQPTDEMKNAWNDAWCTEVNYMTWTTNKVEPIEGVYQRCMYIVALVNEFLKNIPNAPESIDKESYIAQARFNRAFAYYVLMDMFALPPFITEKNYSIEPAPLSREDLFNWIEAELNEIKPNLPSPRSEYGVADQAVASALLARMYLNAEIYTGKARYTECINACNEVIKAGYQLADNYADLFKADNGENPDTKKEIIYPIIFDGDKTQSWGMAAIIIGARGAEDKDVLLAHSGVDQGWAGFRATSNLVHLFDFQNDEEPKASEIQDKRGIFYDKGRSIDITSSVSGTFETEGWSVFKFSNLNSNGQPGKNTLWVDTDFPMFRLGDIYLMYAEAVARGGEGSKASAVEYINALRKRAYGDDKHNISENWLEENNFRNLLDERGRELYWEGIRRTDLVRFDLLTSGSYTWDFKGGINTGVGVNKRYNVYPIPVTDLTVNGNLQQNEGY
# What was measured:
# Assay in all cases: glycan array binding signal (z-score within array); higher = stronger binding
# Conditions in all cases: glycan notation: IUPAC condensed, linker removed
# [1] = molecular target: Gal(b1-4)GlcNAc(b1-3)Gal(b1-4)GlcNAc(b1-6)[Gal(b1-3)]GalNAc
# Summary of the method: (§1)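 The binding signal is a Z-score computed within each array. Data were drawn from 3228 arrays in the Consortium for Functional Glycomics database, restricted to those with a known protein sequence. Scores were averaged over arrays of the same protein sequence at different concentrations or buffers, and over linkers, and negative values can be taken as non-binding.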
# [2] = molecular target: Gal(b1-4)GlcNAc(b1-3)Gal(b1-4)[Fuc(a1-3)]GlcNAc(b1-3)Gal(b1-4)[Fuc(a1-3)]GlcNAc
# Summary of the method: as §1
# [3] = molecular target: Gal(b1-4)GlcNAc(b1-3)GalNAc
# Summary of the method: as §1
# [4] = molecular target: Gal(b1-4)GlcNAc(b1-3)[Fuc(a1-3)GlcNAc(b1-6)]Gal(b1-4)Glc
# Summary of the method: as §1
# [5] = molecular target: Gal(b1-4)GlcNAc(b1-3)[Gal(b1-4)GlcNAc(b1-6)]Gal(b1-4)GlcNAc
# Summary of the method: as §1
# [6] = molecular target: Gal(b1-4)GlcNAc(b1-3)[GlcNAc(b1-6)]Gal(b1-4)GlcNAc
# Summary of the method: as §1
# [7] = molecular target: Gal(b1-4)GlcNAc(b1-6)Gal(b1-4)GlcNAc
# Summary of the method: as §1
# [8] = molecular target: Gal(b1-4)GlcNAc(b1-6)GalNAc
# Summary of the method: as §1
# [9] = molecular target: Gal(b1-4)GlcNAc(b1-6)[Gal(b1-3)]GalNAc
# Summary of the method: as §1
# [10] = molecular target: Gal(b1-4)GlcNAc(b1-6)[Gal(b1-4)GlcNAc(b1-3)]GalNAc
# Summary of the method: as §1
# [11] = molecular target: Gal(b1-4)GlcNAc6P
# Summary of the method: as §1
# [12] = molecular target: Gal(b1-6)Gal
# Summary of the method: as §1
# [13] = molecular target: Gal3S(b1-3)GalNAc
# Summary of the method: as §1
# [14] = molecular target: Gal3S(b1-3)GlcNAc
# Summary of the method: as §1
# [15] = molecular target: Gal3S(b1-3)[Fuc(a1-4)]GlcNAc
# Summary of the method: as §1
# [16] = molecular target: Gal3S(b1-4)Glc
# Summary of the method: as §1
# [17] = molecular target: Gal3S(b1-4)Glc6S
# Summary of the method: as §1
# [18] = molecular target: Gal3S(b1-4)GlcNAc
# Summary of the method: as §1
# [19] = molecular target: Gal3S(b1-4)[Fuc(a1-3)]Glc6S
# Summary of the method: as §1
# [20] = molecular target: Gal3S(b1-4)[Fuc(a1-3)]GlcNAc
# Summary of the method: as §1
# [21] = molecular target: Gal3S(b1-4)[Fuc(a1-3)]GlcNAc6S
# Summary of the method: as §1
# [22] = molecular target: Gal3S4S(b1-4)GlcNAc
# Summary of the method: as §1
# [23] = molecular target: Gal3S6S(b1-4)GlcNAc
# Summary of the method: as §1
# [24] = molecular target: Gal3S6S(b1-4)GlcNAc6S
# Summary of the method: as §1
# [25] = molecular target: Gal4S(b1-4)GlcNAc
# Summary of the method: as §1
# [26] = molecular target: Gal4S6S(b1-4)GlcNAc
# Summary of the method: as §1
# [27] = molecular target: Gal6P(b1-4)GlcNAc
# Summary of the method: as §1
# [28] = molecular target: Gal6S(b1-3)GlcNAc
# Summary of the method: as §1
# [29] = molecular target: Gal6S(b1-3)GlcNAc6S
# Summary of the method: as §1
# [30] = molecular target: Gal6S(b1-4)Glc
# Summary of the method: as §1
# [31] = molecular target: Gal6S(b1-4)Glc6S
# Summary of the method: as §1
# [32] = molecular target: Gal6S(b1-4)GlcNAc
# Summary of the method: as §1
# [33] = molecular target: Gal6S(b1-4)GlcNAc6S
# Summary of the method: as §1
# [34] = molecular target: GalNAc(a1-3)Gal
# Summary of the method: as §1
# [35] = molecular target: GalNAc(a1-3)GalNAc
# Summary of the method: as §1
# [36] = molecular target: GalNAc(a1-3)GalNAc(b1-3)Gal(a1-4)Gal(b1-4)Glc
# Summary of the method: as §1
# [37] = molecular target: GalNAc(a1-3)GalNAc(b1-3)Gal(a1-4)Gal(b1-4)GlcNAc
# Summary of the method: as §1
binder,measurement,setting,value
B1,glycan array binding signal (z-score),[1],0.989
same,glycan array binding signal (z-score),[2],-0.344
same,glycan array binding signal (z-score),[3],-0.452
same,glycan array binding signal (z-score),[4],-0.046
same,glycan array binding signal (z-score),[5],0.06
same,glycan array binding signal (z-score),[6],-0.118
same,glycan array binding signal (z-score),[7],0.158
same,glycan array binding signal (z-score),[8],0.727
same,glycan array binding signal (z-score),[9],-0.057
same,glycan array binding signal (z-score),[10],-0.201
same,glycan array binding signal (z-score),[11],0.047
same,glycan array binding signal (z-score),[12],0.07
same,glycan array binding signal (z-score),[13],-0.326
same,glycan array binding signal (z-score),[14],0.042
same,glycan array binding signal (z-score),[15],-0.281
same,glycan array binding signal (z-score),[16],1.38
same,glycan array binding signal (z-score),[17],0.089
same,glycan array binding signal (z-score),[18],0.432
same,glycan array binding signal (z-score),[19],0.751
same,glycan array binding signal (z-score),[20],0.208
same,glycan array binding signal (z-score),[21],0.131
same,glycan array binding signal (z-score),[22],0.85
same,glycan array binding signal (z-score),[23],-0.174
same,glycan array binding signal (z-score),[24],0.582
same,glycan array binding signal (z-score),[25],0.495
same,glycan array binding signal (z-score),[26],0.671
same,glycan array binding signal (z-score),[27],-0.224
same,glycan array binding signal (z-score),[28],0.63
same,glycan array binding signal (z-score),[29],1.44
same,glycan array binding signal (z-score),[30],-0.189
same,glycan array binding signal (z-score),[31],0.389
same,glycan array binding signal (z-score),[32],-0.682
same,glycan array binding signal (z-score),[33],0.259
same,glycan array binding signal (z-score),[34],0.625
same,glycan array binding signal (z-score),[35],-0.967
same,glycan array binding signal (z-score),[36],-0.45
same,glycan array binding signal (z-score),[37],0.547
